In the experiment the target is FAM19A5 in human cerebrospinal fluid (human (endogenous in CSF)) (UniProt Q7Z5A7). Nature of the experiment: co-IP; pooled normal human CSF; precipitated with monoclonal anti-FAM19A5 antibodies (C-A5-Ab or N-A5-Ab), blotted for LRRC4B and FAM19A5.

Amino acid sequences for entries named in this document (tags omitted). A change or cut given only in a name is not applied to a line headed by its entry. Residues count along the entry.
UniProt Q7Z5A7, residues 44-132: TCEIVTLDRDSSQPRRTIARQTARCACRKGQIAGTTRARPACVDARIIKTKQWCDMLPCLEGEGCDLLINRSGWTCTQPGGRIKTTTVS
UniProt Q9NT99: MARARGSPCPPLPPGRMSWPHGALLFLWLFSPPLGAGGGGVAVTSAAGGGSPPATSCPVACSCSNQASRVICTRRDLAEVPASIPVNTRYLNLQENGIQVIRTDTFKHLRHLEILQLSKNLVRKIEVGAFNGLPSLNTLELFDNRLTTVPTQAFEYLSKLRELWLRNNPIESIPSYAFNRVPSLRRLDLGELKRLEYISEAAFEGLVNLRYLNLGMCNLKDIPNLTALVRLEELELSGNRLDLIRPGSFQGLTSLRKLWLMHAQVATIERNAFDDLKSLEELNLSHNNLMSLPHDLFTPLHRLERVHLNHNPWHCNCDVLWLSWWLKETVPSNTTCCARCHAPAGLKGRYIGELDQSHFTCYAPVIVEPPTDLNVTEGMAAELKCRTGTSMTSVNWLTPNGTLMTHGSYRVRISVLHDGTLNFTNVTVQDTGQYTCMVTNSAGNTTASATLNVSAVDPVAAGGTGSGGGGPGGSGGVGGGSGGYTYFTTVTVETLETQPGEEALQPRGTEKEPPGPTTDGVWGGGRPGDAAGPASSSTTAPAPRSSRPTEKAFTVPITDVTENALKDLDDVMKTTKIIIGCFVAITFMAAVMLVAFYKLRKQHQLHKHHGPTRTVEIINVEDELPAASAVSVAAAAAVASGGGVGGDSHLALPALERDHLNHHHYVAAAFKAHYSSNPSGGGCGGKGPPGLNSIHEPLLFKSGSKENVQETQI

Results are given in words; binding and its absence hold for the method and conditions named. Binding seen in cells or lysates may run through a third protein. Binding can be weak; no strength is given.

As to “LRRC4B (leucine-rich repeat-containing protein 4B) in human cerebrospinal fluid (from UniProt Q9NT99)”, the binding result is reported as “binds”.

Source of the values: article PMC12281766, “Inhibition of FAM19A5 reverses synaptic loss and cognitive decline in mouse models of Alzheimer’s disease” (Alzheimer's Research & Therapy, 2025).
